# From PubChem BioAssay AID445 (National Center for Advancing Translational Sciences (NCATS), 2006)
# Some of the results follow. These are further read-outs of the screen, such as a control signal, another cell line or another target. No call is given for them. Most of these compounds were active or inconclusive in the main read-out, so they are no random draw. The note in brackets gives the kind of curve behind each potency; many fits are weak.
# Experiment: IkB Signaling
# Details: ABC-DLBCL IkBa-CBG/CBR dual luciferase ratio (green luciferase fused to IkBa over red control in OCI-Ly3 lymphoma cells), 4 h
# How it was run: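 Luminescence ratio of IκBα-fused green versus native red beetle luciferase in OCI-Ly3 cells, 4 h post-doxycycline with compound; red signal alone, scaled from basal (0%) to zero light (-100%), flagged nonspecific or cytotoxic effects.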
# [1] = measured here: control luc red channel unless noted
structure (smiles),measurement,setting,value
CCOC(=O)c1c(NC(=O)CSc2nc(-c3ccc(OC)cc3)cc(C(F)(F)F)n2)sc(C)c1C,AC50,[1],"3.98 µM [falling, partial curve, poor fit]"
COc1cc(CN(C(=O)Nc2cccc(Cl)c2)c2ccccn2)cc(OC)c1OC,AC50,[1],"6.31 µM [rising, full curve]"
Cc1ccc(C(=O)NCC(c2cccs2)S(=O)(=O)c2ccccc2)cc1C (stereo not given),AC50,[1],"39.8 µM [falling, single point]"
CC(C)Nc1nc2c(S(=O)(=O)c3cccc(Cl)c3)nnn2c2ccsc12,AC50,[1],"1.26 µM [rising, full curve, poor fit]"
CCCCC(CC)CNC(=O)CCCCn1c(=O)[nH]c2ccsc2c1=O (stereo not given),AC50,[1],"5.01 µM [falling, partial curve]"
CCC(=O)N1CCc2cc(CNS(=O)(=O)c3ccc(C(C)C)cc3)ccc21,AC50,[1],"39.8 µM [falling, single point]"
COC(=O)c1ccc2c(=O)n(CCCCCC(=O)N3CCN(c4cc(C)ccc4C)CC3)c(=O)[nH]c2c1,AC50,[1],"7.94 µM [falling, partial curve]"
CCC(C)Nc1ccc(NC(C)CC)cc1 (stereo not given),AC50,[1],"10 µM [falling, full curve]"
CCCSc1ncc(Cl)c(C(=O)N2CCN(c3cccc(Cl)c3)CC2)n1,AC50,[1],"12.6 µM [falling, partial curve]"
CCOc1ccc(NC(=O)CC2C(=O)N(c3ccc(OC)cc3)C(=O)N2C2CCCCC2)cc1 (stereo not given),AC50,[1],"39.8 µM [falling, single point]"
Cc1cccc(N2CCN(C(=O)c3cnn(-c4ccc(F)cc4F)c3C3CCN(C(=O)OC(C)(C)C)CC3)CC2)c1C,AC50,[1],"15.8 µM [falling, partial curve]"
CCCNC(=O)CSc1c2c(nc3ccc(Cl)cc13)CCCC2,AC50,measured here: IkB-luc green channel,"20 µM [rising, single point]"
same,AC50,measured here: control luc red channel,"12.6 µM [falling, partial curve]"
CCOC(=O)c1cc2c(=O)n3ccccc3nc2n(Cc2ccco2)c1=NC(=O)c1cccc(C)c1,AC50,[1],"12.6 µM [falling, partial curve]"
Cc1ccc(NC(=O)CSc2nc3ccccc3c(=O)n2CCC(=O)NC2CCCCC2)cc1C,AC50,[1],"0.316 µM [falling, full curve]"
Cc1cccc(N2CCN(C(=O)C3CCN(S(=O)(=O)c4c(C)noc4/C=C/c4ccccc4F)CC3)CC2C)c1 (stereo not given),AC50,[1],"2.51 µM [falling, full curve]"
Cc1ccc(C2C=C(c3ccccc3)Nc3nc(NS(=O)(=O)c4ccc(C)cc4)nn32)cc1 (stereo not given),AC50,[1],"31.6 µM [falling, single point]"
Cc1ccc2oc(=O)c3cnn(CC(=O)N4CCN(c5ccccc5F)CC4)c3c2c1,AC50,[1],"25.1 µM [falling, partial curve]"
CCc1ccccc1NC(=O)c1ccc(Cn2nc(N3CCN(c4ccccc4)CC3)ccc2=O)o1,AC50,[1],"31.6 µM [falling, single point]"
Cc1nc2c3ccccc3nc(NNC(=O)CCC(=O)N3CCN(c4cc(Cl)ccc4C)CC3)n2n1,AC50,[1],"20 µM [falling, partial curve]"
O=C(C1CCN(S(=O)(=O)c2ccc3ccccc3c2)CC1)N1CCN(c2ncccn2)CC1,AC50,[1],"15.8 µM [falling, partial curve]"
COc1cccc(NC(=O)c2sc3nc(C)c(C(=O)Nc4ccc(C)cc4C)c(-c4ccco4)c3c2N)c1,AC50,[1],"3.16 µM [falling, full curve]"
COc1ccc(OCC(=O)Nc2cccc(C(=O)OCc3cc(=O)n4nc(C)sc4n3)c2)cc1,AC50,[1],"1.26 µM [falling, partial curve]"
COCc1cc(C)nc2sc(C(=O)Nc3ccc(C(C)=O)cc3)c(N)c12,AC50,[1],"0.316 µM [rising, full curve]"
Cc1cc(OC(C)C(=O)N2CCC(c3nc4ccccc4o3)CC2)ccc1Cl (stereo not given),AC50,[1],"12.6 µM [falling, partial curve]"
Cc1ccc(N(C)C(CNS(=O)(=O)c2ccccc2)c2ccccc2)cc1 (stereo not given),AC50,[1],"15.8 µM [falling, partial curve]"
COc1ccc(S(=O)(=O)Cc2ccc(C(=O)N3CCN(c4cccc(C)c4C)CC3)o2)cc1,AC50,[1],"12.6 µM [falling, partial curve]"
CCCNC(=O)C1CCN(C(=O)N2CC(C)Oc3ccccc32)CC1 (stereo not given),AC50,[1],"0.01 µM [falling, full curve]"
CCCCN(C)S(=O)(=O)c1ccc(NC2=NS(=O)(=O)c3ccccc32)cc1,AC50,[1],"20 µM [falling, partial curve, poor fit]"
O=C(Nc1sc2c(c1C(=O)O)CCCC2)c1cccs1,AC50,[1],"0.158 µM [falling, full curve]"
Cc1ccc(NC(=O)Cn2cc(C(=O)c3ccco3)c3ccccc32)cc1C,AC50,[1],"12.6 µM [falling, partial curve]"
N#C/C(=C/c1ccccc1Cl)c1nc2ccccc2c(=O)[nH]1,AC50,[1],"3.16 µM [rising, partial curve]"
COc1ccc2nc(NC(=O)C3CCN(S(=O)(=O)c4cccc5nsnc45)CC3)sc2c1,AC50,[1],"2.51 µM [falling, full curve]"
Cc1ccc(NS(=O)(=O)c2ccc(OCC(=O)NCc3ccco3)cc2)cc1,AC50,[1],"6.31 µM [falling, partial curve]"
Cc1ccccc1NC(=O)CNc1ccccc1N1CCCCC1,AC50,[1],"12.6 µM [falling, partial curve]"
O=C(C1CCC(Cn2c(=O)c3sccc3n(Cc3cccc(F)c3)c2=O)CC1)N1CCOCC1 (stereo not given),AC50,[1],"10 µM [rising, partial curve]"
Cc1cc2nn(-c3ccc(F)cc3)nc2cc1NC(=O)c1cccc([N+](=O)[O-])c1C,AC50,[1],"12.6 µM [rising, partial curve]"
COc1cccc(OC(=O)CSc2nnc(-c3cccs3)o2)c1,AC50,[1],"20 µM [falling, partial curve]"
CC(=O)Nc1ccc(Nc2nc3c(S(=O)(=O)c4cc(C)ccc4C)nnn3c3ccsc23)cc1,AC50,[1],"25.1 µM [rising, partial curve]"
Clc1cccc(-c2nc3ccccn3c2Nc2ccc3c(c2)OCCO3)c1,AC50,[1],"15.8 µM [falling, partial curve]"

# Rewritten with tabs: part of the list above.
structure (smiles)	measurement	setting	value
CC(C)Nc1nc2c(S(=O)(=O)c3cccc(Cl)c3)nnn2c2ccsc12	AC50	[1]	1.26 µM [rising, full curve, poor fit]
Cc1cccc(N2CCN(C(=O)c3cnn(-c4ccc(F)cc4F)c3C3CCN(C(=O)OC(C)(C)C)CC3)CC2)c1C	AC50	[1]	15.8 µM [falling, partial curve]
CCCNC(=O)CSc1c2c(nc3ccc(Cl)cc13)CCCC2	AC50	measured here: IkB-luc green channel	20 µM [rising, single point]
COc1cccc(NC(=O)c2sc3nc(C)c(C(=O)Nc4ccc(C)cc4C)c(-c4ccco4)c3c2N)c1	AC50	[1]	3.16 µM [falling, full curve]
CCCNC(=O)C1CCN(C(=O)N2CC(C)Oc3ccccc32)CC1 (stereo not given)	AC50	[1]	0.01 µM [falling, full curve]
COc1ccc2nc(NC(=O)C3CCN(S(=O)(=O)c4cccc5nsnc45)CC3)sc2c1	AC50	[1]	2.51 µM [falling, full curve]
Cc1ccc(NS(=O)(=O)c2ccc(OCC(=O)NCc3ccco3)cc2)cc1	AC50	[1]	6.31 µM [falling, partial curve]
Cc1cc2nn(-c3ccc(F)cc3)nc2cc1NC(=O)c1cccc([N+](=O)[O-])c1C	AC50	[1]	12.6 µM [rising, partial curve]
